Results: publication PMC7594721, “Synthesis and biological activity of 2-cyanoacrylamide derivatives tethered to imidazopyridine as TAK1 inhibitors” (Journal of Enzyme Inhibition and Medicinal Chemistry, 2020)

Test: HPLC analysis for reversible addition of BME

Question: Which “conversion to the BME adduct” value (48 mM BME in PBS pH 7.4 / DMSO, after 30 min) does the source give for Cc1cccc(/C=C(\C#N)C(=O)N[C@@H]2CCN(c3c(Cl)cnc4[nH]c(-c5ccc(N6CCN(C)CC6)cc5)nc34)C2)n1 [Compound 13h, (R,E)-N-(1–(6-chloro-2–(4-(4-methylpiperazin-1-yl)phenyl)-3H-imidazo[4,5-b]pyridin-7-yl)pyrrolidin-3-yl)-2-cyano-3-(6-methylpyridin-2-yl)acrylamide] here?
Answer: The value was “full conversion to the BME adduct”.

Question: And the “reversibility of BME adduct formation” value (adduct mixture diluted 10-fold, HPLC and HRMS)?
Answer: The value was “gradually reverted to 13h”.
